Test results taken from PubChem BioAssay AID1347076 (National Center for Advancing Translational Sciences (NCATS), 2019).
Among all 400,000 compounds or so, about 13,000 (3.2%) were called active. The inconclusive results got no clear call from the source; some entries with a clear call stand among them for comparison. Calls come from the whole dose curve; as a rule, active = well fitted cell-killing curve with a large enough effect; inconclusive = small, poorly fitted or top-dose-only effect, or effect the other way; inactive = flat fitted curve, though single readings scatter. A potency beside an inconclusive call is a rough fit, not a confirmed value.

Test: qHTS assay for MDR1-selective chemotherapeutics: Primary screen using the drug-selected MDR subline cells KB-V1; note: nearly all actives have a fitted effect of over 60% in size
Conditions: KB-V1 MDR cells viability, CellTiter-Glo, 72 h; activity change, negative = cytotoxicity: at 46.1 µM (top of the series)
In short: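 Readout: CellTiter-Glo luminescence, 10 min after addition. Cells: KB-V1 MDR subline, 72 h at 37 degrees C with compound. Analysis: corrected, normalized data fitted to concentration-effect curves.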
% is set by controls: 0 for no effect and ±100 for the full control effect; potency is the fitted concentration of half-maximal effect.

Row | SMILES | Potency | activity change, negative = cytotoxicity
1 | O=C1c2ccccc2NC(c2ccc(Cl)cc2Cl)N1O (centres undefined) | inconclusive: 7.31 µM [cytotoxic, partial curve, poor fit] | –
2 | Cc1ccc2cccc(NC(=O)c3ccc(C#N)cc3F)c2n1 | – | inactive: 6.2%
3 | C=C1CC(COc2ccc3c(C)c(Cl)c(=O)oc3c2)(c2ccccc2)OC1=O (centres undefined) | inconclusive: 18.4 µM [cytotoxic, single point] | –
4 | Cc1ccc2c(c1)nnn2C1CCN(C(=O)NCc2ccccc2)CC1 | inconclusive: 9.2 µM [cytotoxic, partial curve, poor fit] | –
5 | Cc1cccc(NC(=O)c2cccc(OC(=S)N3CCOCC3)c2)c1C | inconclusive: 16.4 µM [cytotoxic, partial curve] | –
6 | CCCCCCc1cc2cc(S(=O)(=O)c3ccc(F)c(Cl)c3)c(=O)oc2cc1O | active: 14.6 µM | –
7 | Cc1cccc(S(=O)(=O)c2c(N)n(/N=C/c3ccco3)c3nc4ccccc4nc23)c1 | active: 3.66 µM | –
8 | COc1ccc(N(C(C)C(=O)N/N=C/c2ccc(OCC(C)C)cc2)S(C)(=O)=O)cc1 (centres undefined) | inconclusive: 7.31 µM [cytotoxic, partial curve] | –
9 | COc1ccc(C(=O)NC2CC(C)(C)NC(C)(C)C2)cc1S(=O)(=O)N1CCOCC1 | – | inactive: 15.2%
10 | Fc1ccc(-c2csc(Nc3ccccn3)n2)c(F)c1 | inconclusive: 18.4 µM [cytotoxic, partial curve, poor fit] | –
11 | CCCc1nc(SCC(=O)c2ccc(OC)cc2)c2ccccc2n1 | – | inactive: -15.9%
12 | O=c1[nH]nc(Sc2ncnc3sccc23)n1CCc1ccccc1 | – | inactive: 0%
13 | Cc1[nH]c(=O)[nH]c(=O)c1Sc1ccccc1[N+](=O)[O-] | – | inactive: -12%
14 | COc1ccc(N2CCN(c3ccc([N+](=O)[O-])nc3)CC2)cc1 | inconclusive: 0.184 µM [cytotoxic, full curve] | –
15 | Cc1cccc(C)c1NC(=O)COC(=O)c1ccc(N2CCCC2)c([N+](=O)[O-])c1 | – | inactive: -0.114%
16 | CCN(CC(=O)Nc1cccc(C(C)=O)c1)S(=O)(=O)c1ccc(OC)cc1 | inconclusive: 14.6 µM [cytotoxic, partial curve, poor fit] | –
17 | COC(=O)c1ccc2nc(-c3ccccc3)c(Cc3ccccc3C(F)(F)F)n2c1 | inconclusive: 9.2 µM [cytotoxic, partial curve] | –
18 | COc1ccc(CNS(=O)(=O)c2ccc(Br)s2)cc1 | – | inactive: 8.14%
19 | NC(=O)C1(Nc2ccc(-c3ccc(Cl)cc3)cc2)CCCC1 | – | inactive: 12.3%
20 | Cc1onc(-c2ccccc2)c1C(=O)NC(=S)Nc1sc2c(c1C#N)CCC(C)C2 (centres undefined) | inconclusive: 29.1 µM [cytotoxic, single point] | –
21 | CCOC(=O)CSc1nc2ccc(N3CCOCC3)cc2c(=O)n1Cc1ccccc1 | inconclusive: 35.5 µM [cytotoxic, single point] | –
22 | CCn1ccc2cc(S(=O)(=O)N3CCCN(C(=O)NCC(=O)OC)CC3)ccc21 | – | inactive: -2.54%

Row | SMILES | Potency | activity change, negative = cytotoxicity
23 | CCOC(=O)C1CCCN(C(=O)c2cc3ccc(OC)cc3[nH]2)C1 (centres undefined) | – | inactive: -4.14%
24 | Nc1cccc2c1C(=O)N(C(=O)/C=C/c1ccc(F)cc1)C2=O | inconclusive: 2.06 µM [cytotoxic, partial curve, poor fit] | –
25 | CCOc1cc(/C=N/O)cc(Br)c1OCC | inconclusive: 29.1 µM [cytotoxic, single point] | –
26 | COc1cc(C(=O)NCC2CCCO2)ccc1OCc1ccc(Cl)cc1 (centres undefined) | inconclusive: 9.2 µM [cytotoxic, partial curve] | –
27 | Cc1ccc2oc(-c3cccc(NC(=O)C4CCCO4)c3)nc2c1 (centres undefined) | – | inactive: 17.8%
28 | Cc1ccccc1C(=O)NC1(C(F)(F)F)N=C(c2ccccc2)N(Cc2ccccc2)C1=O (centres undefined) | inconclusive: 1.46 µM [cytotoxic, partial curve, poor fit] | –
29 | COc1ccc(Cl)cc1Cn1c(C)c(C(=O)NCc2ccc3c(c2)OCCO3)sc1=O | inconclusive: 5.17 µM [cytotoxic, full curve] | –
30 | CSc1nc(C2CC2)cc(-c2cccs2)c1C#N | inconclusive: 23.1 µM [cytotoxic, single point] | –
31 | O=C(COc1ccccc1[N+](=O)[O-])Nc1cc(-c2nc3cc(Cl)ccc3o2)ccc1Cl | – | inactive: -0.911%
32 | CC(C)(C)N1CC(c2nc3ccccc3n2Cc2ccc(Cl)cc2)CC1=O (centres undefined) | active: 14.6 µM | –
33 | Cc1cccc(CS(=O)(=O)Cc2ccc(C(=O)NCC3CCCO3)o2)c1 (centres undefined) | inconclusive: 32.6 µM [cytotoxic, partial curve, poor fit] | –
34 | N#C/C(=C\c1ccc(OC(=O)c2cccs2)cc1)c1nc2ccccc2[nH]1 | inconclusive: 29.1 µM [cytotoxic, single point] | –
35 | O=C(CN1c2ccccc2Sc2ccccc21)NNC(=S)Nc1ccc(Cl)cc1 | – | inactive: -3.86%
36 | C[C@H]1CN([C@@H](C)CO)C(=O)c2cc(C#Cc3ccccn3)cnc2O[C@@H]1CN(C)Cc1ccccc1 | inconclusive: 23.1 µM [rising, single point] | –
37 | COc1cccc(NC(=S)N(CCN(C)C)C(C)c2ccncc2)c1 (centres undefined) | inconclusive: 9.2 µM [cytotoxic, partial curve] | –
38 | COc1ccc(C(C)(C)C)cc1NC(=O)c1[nH]c(C)c(C(C)=O)c1C | inconclusive: 25.9 µM [cytotoxic, partial curve] | –
39 | CC(C(=O)N(C)Cc1ccccc1)N1CCN(C/C=C/c2ccccc2)CC1 (centres undefined) | inconclusive: 8.2 µM [cytotoxic, partial curve, poor fit] | –
40 | Cc1cc(C)cc(C(=O)OCC(=O)NCc2ccco2)c1 | inconclusive: 29.1 µM [cytotoxic, single point] | –
41 | CCC/C=C/c1ccc(CN2C(C(C)C)C(=O)N(Cc3cn(CCC4OCCCO4)nn3)CCS2(=O)=O)cc1 (centres undefined) | – | inactive: -12.9%
42 | Cc1ccc(CCNC(=O)c2ccc(CS(=O)(=O)Cc3cccc(C)c3)o2)cc1 | inconclusive: 23.1 µM [cytotoxic, single point] | –
43 | O=S(=O)(c1ccc(Cl)cc1)N1CCN=C1SCc1cccnc1 | – | inconclusive: -33.1% [cytotoxic]
44 | COc1cc(OC)c(OC)cc1CN1CCN(Cc2ccco2)CC1 | inconclusive: 16.4 µM [rising, partial curve, poor fit] | –

Single values from the results shown:
O=C(CN1c2ccccc2Sc2ccccc21)NNC(=S)Nc1ccc(Cl)cc1 | activity change, negative = cytotoxicity: inactive: -3.86%
O=S(=O)(c1ccc(Cl)cc1)N1CCN=C1SCc1cccnc1 | activity change, negative = cytotoxicity: inconclusive: -33.1% [cytotoxic]
